The nature of this series: general procedure: Fmoc solid-phase peptide synthesis; Fmoc-Leu-Alko-PEG resin; HBTU/DIPEA. Conditions: whole synthesis, scale 0.24 mmol, TFA salt.

Where a sequence shows no end group, the ends are not given.

Here are results for 1 sequence from patent US20210100886A1 (SUMITOMO DAINIPPON PHARMA CO., LTD., priority 2017, published 2021).

As for HCYTWNQMNL, the isolated mass is reported as 0.14 g.
